Publication PMC10045983
These are yes or no findings as the source states them, for the method shown. In cells and extracts the contact can be indirect. Some entries that bind do so weakly or less than the wild type.

Protein sequences, listed by entry. Tags and fused reporters are not part of them.
UniProt Q14432: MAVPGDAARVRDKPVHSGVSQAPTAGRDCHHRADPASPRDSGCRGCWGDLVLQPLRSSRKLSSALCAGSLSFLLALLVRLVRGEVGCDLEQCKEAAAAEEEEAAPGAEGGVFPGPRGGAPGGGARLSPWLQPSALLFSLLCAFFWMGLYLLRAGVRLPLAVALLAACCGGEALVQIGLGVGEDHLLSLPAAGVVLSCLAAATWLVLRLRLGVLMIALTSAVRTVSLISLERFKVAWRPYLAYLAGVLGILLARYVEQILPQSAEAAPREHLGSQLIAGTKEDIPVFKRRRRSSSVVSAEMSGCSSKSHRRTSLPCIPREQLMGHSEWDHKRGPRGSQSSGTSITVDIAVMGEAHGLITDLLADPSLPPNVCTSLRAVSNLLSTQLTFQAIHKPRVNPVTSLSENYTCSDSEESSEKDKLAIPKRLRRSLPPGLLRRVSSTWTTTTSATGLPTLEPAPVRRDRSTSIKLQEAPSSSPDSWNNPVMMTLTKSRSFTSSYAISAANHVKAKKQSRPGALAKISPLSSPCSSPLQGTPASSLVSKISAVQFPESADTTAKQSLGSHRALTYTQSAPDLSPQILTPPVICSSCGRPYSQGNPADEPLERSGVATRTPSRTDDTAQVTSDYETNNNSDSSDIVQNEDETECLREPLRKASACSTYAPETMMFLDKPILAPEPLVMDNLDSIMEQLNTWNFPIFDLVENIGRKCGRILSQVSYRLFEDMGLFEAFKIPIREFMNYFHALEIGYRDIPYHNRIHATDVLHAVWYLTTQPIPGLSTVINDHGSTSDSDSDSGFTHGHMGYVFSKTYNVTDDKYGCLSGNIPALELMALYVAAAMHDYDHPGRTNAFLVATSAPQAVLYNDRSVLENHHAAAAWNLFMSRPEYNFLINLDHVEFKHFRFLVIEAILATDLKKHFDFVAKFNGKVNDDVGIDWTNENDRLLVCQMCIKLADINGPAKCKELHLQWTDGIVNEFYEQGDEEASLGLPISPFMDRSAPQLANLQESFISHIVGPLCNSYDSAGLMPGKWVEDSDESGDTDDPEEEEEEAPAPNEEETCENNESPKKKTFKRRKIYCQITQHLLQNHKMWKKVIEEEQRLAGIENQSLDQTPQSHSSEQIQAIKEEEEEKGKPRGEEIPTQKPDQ
UniProt Q4QQW4: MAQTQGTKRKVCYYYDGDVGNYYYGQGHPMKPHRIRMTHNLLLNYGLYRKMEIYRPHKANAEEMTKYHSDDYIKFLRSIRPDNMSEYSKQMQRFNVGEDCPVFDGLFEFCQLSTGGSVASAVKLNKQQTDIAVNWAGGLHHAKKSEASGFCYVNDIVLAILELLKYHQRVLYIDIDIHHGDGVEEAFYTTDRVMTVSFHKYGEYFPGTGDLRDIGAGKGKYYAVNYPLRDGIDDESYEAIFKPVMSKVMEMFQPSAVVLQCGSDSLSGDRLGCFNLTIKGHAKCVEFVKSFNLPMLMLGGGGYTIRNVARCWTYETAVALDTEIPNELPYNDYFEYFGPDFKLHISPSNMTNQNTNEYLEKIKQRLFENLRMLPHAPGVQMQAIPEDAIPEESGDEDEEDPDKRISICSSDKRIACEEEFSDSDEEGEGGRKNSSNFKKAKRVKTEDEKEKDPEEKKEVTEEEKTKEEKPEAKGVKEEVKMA
UniProt O70437: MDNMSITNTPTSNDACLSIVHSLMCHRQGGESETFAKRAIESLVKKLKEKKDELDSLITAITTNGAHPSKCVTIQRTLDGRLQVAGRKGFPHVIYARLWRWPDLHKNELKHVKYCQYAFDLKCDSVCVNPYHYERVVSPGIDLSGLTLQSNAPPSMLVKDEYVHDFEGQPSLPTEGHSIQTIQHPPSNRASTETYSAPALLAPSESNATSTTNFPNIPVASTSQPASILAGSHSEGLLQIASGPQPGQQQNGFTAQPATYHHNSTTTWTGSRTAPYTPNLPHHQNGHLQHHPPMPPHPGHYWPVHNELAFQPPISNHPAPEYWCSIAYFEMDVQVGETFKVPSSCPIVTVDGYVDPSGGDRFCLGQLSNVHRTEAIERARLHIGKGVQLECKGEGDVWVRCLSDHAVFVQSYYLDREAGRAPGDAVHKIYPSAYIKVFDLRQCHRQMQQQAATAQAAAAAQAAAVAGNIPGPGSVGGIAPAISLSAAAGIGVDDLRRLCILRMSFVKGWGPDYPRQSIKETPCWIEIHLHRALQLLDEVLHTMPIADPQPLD
UniProt P12368: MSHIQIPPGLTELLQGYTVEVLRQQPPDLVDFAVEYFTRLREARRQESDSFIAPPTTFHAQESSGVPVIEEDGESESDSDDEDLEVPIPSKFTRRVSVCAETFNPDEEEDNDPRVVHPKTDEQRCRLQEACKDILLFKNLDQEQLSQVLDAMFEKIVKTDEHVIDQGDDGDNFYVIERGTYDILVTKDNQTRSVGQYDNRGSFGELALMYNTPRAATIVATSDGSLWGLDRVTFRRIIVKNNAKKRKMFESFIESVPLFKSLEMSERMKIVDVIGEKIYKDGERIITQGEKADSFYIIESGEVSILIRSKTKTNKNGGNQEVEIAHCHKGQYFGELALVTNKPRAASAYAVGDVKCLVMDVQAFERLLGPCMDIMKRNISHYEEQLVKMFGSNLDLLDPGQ

Legend:
PDE3A1-mCherry = PDE3A1-mCherry (UniProt Q14432); experiment: co-IP; RFP-Trap beads, lysates of NRVM expressing RFP (mCherry)-tagged PDE3A1 or PDE3A2; Western blot for endogenous SMAD4 and HDAC-1
Flag HDAC-1 = Flag HDAC-1 (UniProt Q4QQW4); experiment: co-IP; Flag pull down from lysates of NRVM expressing HDAC-1-Flag; Western blot for PDE3A, PKA RIIα and Cα
Flag SMAD4 = Flag SMAD4 (UniProt O70437); experiment: co-IP; Flag M2 agarose beads, lysates of NRVM expressing Flag-tagged SMAD4; immunoprecipitate probed with anti-PDE3A antibody
[1] = biological target: SMAD4 (SMAD family member 4), endogenous, rat (rat (endogenous in NRVM, ARVM and rat left ventricle)) (UniProt O70437); experiment: co-IP; endogenous proteins from NRVM lysates, anti-SMAD4 or anti-PDE3A antibody and protein A beads, overnight at 4 °C; Western blot

SMAD4 (SMAD family member 4), endogenous, rat (from UniProt O70437 1-552)
binding (PDE3A1-mCherry): binds

PKA regulatory subunit (RIIα), endogenous, rat (from UniProt P12368 1-401)
binding (Flag HDAC-1): binds

B1: PDE3A1, endogenous, rat (enzyme, UniProt Q62865 1-1141)
chain: MAVRGEAAQDWAKPGLRGPSPAPVARGDHRCRGGSPSSPRGSGCCWRALALQPLRRSPQLSSALCAGSLSVLLALLVRLVGGEVGGELESSQEAAAEEEEEEGARGGVFPGPRGGAPGGGAQLSPWLQPAALLFSLLCAFFWMGLCLLRAGVRLPLAVALLAACCAGEALVQLSLGVGDGRLLSLPAAGVLLSCLGGATWLVLRLRLGVLMVALTSALRTVALVSLERFKVAWRPYLAYLAAVLGLLLARYAEQLLPQCSGPAPPRERFGSQSSARTKEEIPGWKRRRRSSSVVAGEMSGCGGKSHRRTSLPCIPREQLMGHSEWDHKRGSRGSQSGTSVTVDIAVMGEAHGLITDLLADPSLPPNVCTSLRAVSNLLSTQLTFQAIHKPRVNPTVTFSENYTCSDSEEGLEKDKLAIPKRLRRSLPPGLLRRVSSTWTTTTSATGLPTLEPAPVRRDRSASIKPHEAPSPSAVNPDSWNAPVLMTLTKSRSFTSSYAVSAANHVKAKKQNRPGGLDKISPVPSPSSSPPQGSPTSSPVSGIASVQFPESPEVTTKRGPGSHRALTYTQSAPDLSPQIPPSPVICSSCGRPYSQGNPADGPSERSGPAMQKPNRTDDTSQVTSDYETNNNSDSSDILQNDEEAECQREPLRKASACGTYTPQTMIFLDKPILAPEPLVMDNLDSIMDQLNTWNFPIFDLVENIGRKCGRILSQVSYRLFEDMGLFEAFKIPVREFMNYFHALEIGYRDIPYHNRIHATDVLHAVWYLTTQPIPGLPSVIGDHGSASDSDSDSGFTHGHMGYVFSKAYHVPDDKYGCLSGNIPALELMALYVAAAMHDYDHPGRTNAFLVATSAPQAVLYNDRSVLENHHAAAAWNLFMSRPEYNFLVNLDHVEFKHFRFLVIEAILATDLKKHFDFVAKFNAKVNDDVGIDWTNENDRLLVCQMCIKLADINGPAKCKDLHLRWTEGIASEFYEQGDEEASLGLPISPFMDRSAPQLANLQESFISHIVGPLCHSYDSAGLMPGKWVDDSDDSGDTDDPEEEEEEAETPHEEETCENSEAPRKKSFKRRRIYCQITQHLLQNHMMWKKVIEEEQCLSGTENQAPDQAPLQHSSEQIQAIKEEEEEKGKPRAEETLAPQPDL
binding (Flag SMAD4): no binding | binding [1]: no binding
